Results published in US20090035818A1.
No constants are given. Whether binding was seen depends on the method and setting. Some entries that bind do so weakly or less than the wild type.

The chains behind the UniProt entries cited, without tags or fusion partners. Residues count along the entry.
UniProt P01267, residues 20-2769: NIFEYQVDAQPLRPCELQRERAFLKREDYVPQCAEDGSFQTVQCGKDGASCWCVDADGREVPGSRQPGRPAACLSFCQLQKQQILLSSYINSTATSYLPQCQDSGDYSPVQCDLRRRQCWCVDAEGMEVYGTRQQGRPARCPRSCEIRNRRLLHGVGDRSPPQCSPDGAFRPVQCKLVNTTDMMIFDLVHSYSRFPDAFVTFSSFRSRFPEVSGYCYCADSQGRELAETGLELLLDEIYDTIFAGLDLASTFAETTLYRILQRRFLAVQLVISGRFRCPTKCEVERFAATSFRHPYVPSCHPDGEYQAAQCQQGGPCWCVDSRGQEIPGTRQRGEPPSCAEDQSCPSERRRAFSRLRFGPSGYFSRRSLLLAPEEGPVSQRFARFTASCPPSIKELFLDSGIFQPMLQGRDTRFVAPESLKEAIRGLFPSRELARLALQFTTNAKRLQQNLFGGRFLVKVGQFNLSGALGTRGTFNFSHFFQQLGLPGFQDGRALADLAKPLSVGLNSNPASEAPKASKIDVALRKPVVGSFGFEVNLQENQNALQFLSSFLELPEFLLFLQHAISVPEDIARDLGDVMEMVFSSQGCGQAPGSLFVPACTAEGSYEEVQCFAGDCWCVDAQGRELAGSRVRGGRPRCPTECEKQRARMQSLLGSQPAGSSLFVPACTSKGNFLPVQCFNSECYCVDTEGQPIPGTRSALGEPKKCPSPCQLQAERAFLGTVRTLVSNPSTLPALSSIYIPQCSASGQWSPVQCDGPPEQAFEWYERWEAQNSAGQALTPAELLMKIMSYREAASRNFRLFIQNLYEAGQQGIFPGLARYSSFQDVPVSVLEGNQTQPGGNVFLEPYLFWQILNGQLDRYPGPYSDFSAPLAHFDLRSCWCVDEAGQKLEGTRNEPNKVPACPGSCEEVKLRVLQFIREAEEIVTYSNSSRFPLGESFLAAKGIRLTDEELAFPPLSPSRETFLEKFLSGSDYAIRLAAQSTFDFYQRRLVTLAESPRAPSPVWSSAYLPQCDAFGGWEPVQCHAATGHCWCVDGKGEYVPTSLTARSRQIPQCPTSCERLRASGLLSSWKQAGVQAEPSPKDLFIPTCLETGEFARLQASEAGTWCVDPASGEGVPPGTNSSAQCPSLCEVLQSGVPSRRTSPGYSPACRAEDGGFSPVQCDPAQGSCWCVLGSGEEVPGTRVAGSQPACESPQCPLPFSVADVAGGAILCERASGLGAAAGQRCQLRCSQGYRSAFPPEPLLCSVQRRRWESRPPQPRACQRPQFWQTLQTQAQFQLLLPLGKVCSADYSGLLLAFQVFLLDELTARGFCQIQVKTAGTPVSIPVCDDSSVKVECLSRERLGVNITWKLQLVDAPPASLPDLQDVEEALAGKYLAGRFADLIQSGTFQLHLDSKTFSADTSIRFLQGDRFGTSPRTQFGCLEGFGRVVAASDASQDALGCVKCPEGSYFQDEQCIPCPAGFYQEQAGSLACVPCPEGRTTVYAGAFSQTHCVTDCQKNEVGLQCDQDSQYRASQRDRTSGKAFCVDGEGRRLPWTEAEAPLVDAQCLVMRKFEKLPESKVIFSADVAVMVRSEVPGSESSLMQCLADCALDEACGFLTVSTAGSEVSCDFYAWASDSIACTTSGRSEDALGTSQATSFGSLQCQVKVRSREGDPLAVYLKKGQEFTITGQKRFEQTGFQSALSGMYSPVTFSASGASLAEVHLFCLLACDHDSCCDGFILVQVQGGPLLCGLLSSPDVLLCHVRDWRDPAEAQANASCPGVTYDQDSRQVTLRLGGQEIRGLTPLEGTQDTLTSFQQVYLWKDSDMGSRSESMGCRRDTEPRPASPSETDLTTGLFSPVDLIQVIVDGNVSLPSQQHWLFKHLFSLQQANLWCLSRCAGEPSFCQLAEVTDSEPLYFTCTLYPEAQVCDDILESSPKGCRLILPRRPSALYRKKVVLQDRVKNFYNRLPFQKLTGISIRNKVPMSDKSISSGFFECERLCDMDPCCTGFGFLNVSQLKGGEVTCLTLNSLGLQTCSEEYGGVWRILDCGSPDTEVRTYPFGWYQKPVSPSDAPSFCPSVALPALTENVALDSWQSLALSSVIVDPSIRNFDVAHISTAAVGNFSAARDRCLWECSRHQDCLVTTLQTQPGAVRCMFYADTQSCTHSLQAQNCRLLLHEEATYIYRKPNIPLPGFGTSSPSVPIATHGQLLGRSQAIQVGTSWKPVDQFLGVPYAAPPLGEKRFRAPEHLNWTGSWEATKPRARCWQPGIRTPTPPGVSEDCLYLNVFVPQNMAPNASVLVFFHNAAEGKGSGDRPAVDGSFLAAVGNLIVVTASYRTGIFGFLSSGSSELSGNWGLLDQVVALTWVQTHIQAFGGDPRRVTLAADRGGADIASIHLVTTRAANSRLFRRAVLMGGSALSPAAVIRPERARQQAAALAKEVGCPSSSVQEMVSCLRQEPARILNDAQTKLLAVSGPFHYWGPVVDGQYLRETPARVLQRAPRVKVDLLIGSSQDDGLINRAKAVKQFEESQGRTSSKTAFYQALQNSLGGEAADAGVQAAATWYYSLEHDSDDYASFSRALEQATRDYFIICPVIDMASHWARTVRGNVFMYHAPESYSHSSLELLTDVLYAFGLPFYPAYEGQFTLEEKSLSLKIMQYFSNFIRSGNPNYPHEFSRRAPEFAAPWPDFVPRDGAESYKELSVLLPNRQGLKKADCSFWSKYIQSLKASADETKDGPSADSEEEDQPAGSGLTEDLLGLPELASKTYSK

How the values were obtained:
[1] = molecular target: bovine tyroglobulin (cattle) (UniProt P01267); assay: SPR, bovine tyroglobulin on CM5 chip, lectin as analyte
[2] = molecular target: bovine tyroglobulin (cattle) (UniProt P01267); assay: SPR, bovine tyroglobulin (12,095 RU) on CM5 chip, lectin 100 µg/ml, elution with 0.5 M D-mannose
[3] = molecular target: bovine tyroglobulin (cattle) (UniProt P01267); assay: SPR (Biacore), bovine tyroglobulin immobilised on CM5 chip (12,095 RU), lectin 100 µg/ml in HBS-EP at 5 µl/min
[4] = molecular target: bovine tyroglobulin (cattle) (UniProt P01267); assay: SPR (Biacore), residual lectin on bovine tyroglobulin chip after HBS-EP wash and after 0.5 M D-mannose, relative to amount bound (100 %)

- binding [1]: binds
- binding [2]: binds
- binding [3]: binds
- binding [4]: binds
B1: Eucheuma serra-derived lectin ESA-2 (protein)
chain: GRYTVQNQWGGSSAPWNDAGLWILGSRGNQNVMAVDVNSSDGGANLNGTMTYSGEGPIGFKGARRGESNVYDVENQWGGSSAPWHAGGQFVIGSRSGQGVLAVNITSSDGGKTLTGTMTYEREGPIGFKGTQSGGDTYNVENQWGGSSAPWNKAGIWALGDRSGQAMIAMDVSSSDGGKTLEGTMQYKGEGPIGFRGKLSGANNYSVENQWGGSSAPWNAAGDWLIGDRHNQNITAVKVSSDNDGKNLDGTCTYEREGPIGFKGVATS
